Data from PubChem BioAssay AID504834 (National Center for Advancing Translational Sciences (NCATS), 2011).
In all, about 320,000 compounds went through this assay and about 22,000 (6.9%) were called active. Inconclusive means that the source gave no clear call. Such entries were picked first, then a sample of the others. Calls follow the shape of the dose curve; as a rule, active = well fitted inhibition curve with a large enough effect; inconclusive = small, poorly fitted or top-dose-only effect, or another doubt; inactive = no such curve, though single readings can be large or run the other way. Where the call is inconclusive, the potency comes from a doubtful curve fit.

Assay: Primary qHTS for delayed death inhibitors of the malarial parasite plastid, 96 hour incubation
Settings: P. falciparum luciferase reporter growth; series mostly up to 28.7 µM
How it was run: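 Two-generation exposure (96 h) targets delayed-death phenotype. Reporter parasites carrying integrated firefly luciferase, in red cells at 2% hematocrit and 0.05% parasitemia final, kept at 37 C, 5% CO2; luminescence loss indicates inhibition.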
Potency is read from the fitted curve at half-maximal effect.

SMILES	Potency
O=C(c1ccco1)N1N=C(c2cccs2)CC1c1cc([N+](=O)[O-])ccc1O (centres undefined)	inconclusive: 13.1 µM [inhibitor, single point]
Cc1oc2c(cc(NS(=O)(=O)c3ccc(C(C)C)cc3)c3ccccc32)c1C(=O)O	inconclusive: 18.5 µM [inhibitor, single point]
Cc1cc(C(=O)OCC(=O)NC(=O)c2cccn2C)c2ccccc2n1	inactive
CC(C)CN(C(=O)COC(=O)Cc1cccc2ccccc12)c1c(N)n(Cc2ccccc2)c(=O)[nH]c1=O	inconclusive: 18.5 µM [inhibitor, single point]
CCOc1ccc(C(=O)Nc2ccccc2CC)cc1[N+](=O)[O-]	inconclusive: 18.5 µM [inhibitor, single point]
COc1ccccc1NS(=O)(=O)c1ccc(Cl)c(NC(=O)CN2C(=O)c3ccccc3C2=O)c1	inconclusive: 0.586 µM [inhibitor, partial curve, poor fit]
CCc1cc(CNC(=O)CCc2nnc(CCCc3ccccc3)o2)on1	inconclusive: 11.7 µM [inhibitor, single point]
Cc1cc2c(cc1S(=O)(=O)N1CCN(c3cccc(C)c3C)CC1)OCC(=O)N2	inconclusive: 0.928 µM [inhibitor, partial curve, poor fit]
CC(C)(C)NC(=O)NC(=O)COC(=O)c1cccc(S(=O)(=O)N2CCCCC2)c1	inactive
COC(=O)C1=C(O)/C(=C\c2ccc(CNC(=O)C(=O)Nc3ccc(C)cc3)o2)N=C1C	inactive
O=S(=O)(/C=C/c1ccccc1)N1CCN(c2cccc(Cl)c2)CC1	inconclusive: 4.15 µM [inhibitor, partial curve, poor fit]
COc1cccc(NC(=O)C(Sc2nnc(Nc3ccccc3C)s2)c2ccccc2)c1 (centres undefined)	active: 6.57 µM
O=C1/C(=C/c2ccncc2)SC(=S)N1N1CCOCC1	inactive
O=C(CSc1nnc(Cc2ccccc2)n1-c1cccc(Cl)c1)NNC(=O)Cc1ccccc1	inconclusive: 0.37 µM [inhibitor, partial curve, poor fit]
Cc1ccc(C(=O)CSc2nnc(N)s2)c(C)c1	inactive
CC1C(=O)N(c2ccc(S(=O)(=O)N(C)C)cc2)C1(/C=C/c1ccccc1)C(=O)NC1CCCC1 (centres undefined)	inactive
Cc1ccc(S(=O)(=O)NC(=O)COc2ccccc2)cc1	inconclusive: 0.0029 µM [inhibitor, full curve, poor fit]
CN(Cc1nc2ccccc2c(=O)[nH]1)c1ccccc1	inconclusive: 18.5 µM [inhibitor, single point]
CCOC(=O)C1=C(CN2CCc3ccccc32)NC(=O)NC1c1cccc([N+](=O)[O-])c1 (centres undefined)	active: 8.28 µM
CCn1c(N2CCN(C(=S)NCCc3ccccc3)CC2)nc2ccccc21	inconclusive: 0.0033 µM [inhibitor, full curve, poor fit]
COC(=O)CN1C(=O)C2(C(C#N)=C(N)Oc3n[nH]c(-c4cccs4)c32)c2ccccc21 (centres undefined)	inactive
COCCNC(=O)CCC1CCN(C/C=C/c2ccccc2OC)CC1	inconclusive: 18.5 µM [inhibitor, single point]

SMILES	Potency
CN(C)C(=O)Cn1cc(S(=O)(=O)Cc2ccccc2)c2ccccc21	inactive
O=C(COc1ccc(Cl)cc1)Nc1ccc(Cc2ccncc2)cc1	inconclusive: 3.7 µM [inhibitor, partial curve]
O=C(CN1C(=O)/C(=C/c2ccc(F)cc2)SC1=S)N1CCN(CCc2ccccn2)CC1	active: 14.7 µM
COC(=O)c1ccc(N2CCC(c3cc(-c4ccc(OC)cc4)n[nH]3)CC2)c([N+](=O)[O-])c1	inconclusive: 1.04 µM [inhibitor, partial curve, poor fit]
Cc1cc(F)ccc1NC(=O)CCc1ccc(S(=O)(=O)N2CCOCC2)cc1	inconclusive: 11.7 µM [inhibitor, single point]
Cn1cnc2cc(OC(=O)c3ccccc3)ccc21	inactive
O=C(Cc1cccs1)NCc1ccc(Cl)cc1Cl	inconclusive: 18.5 µM [inhibitor, single point]
COc1ccc(C(=O)c2sc3nc(C)cc(-c4cccs4)c3c2N)cc1OC	inconclusive: 13.1 µM [inhibitor, partial curve]
COc1ccccc1-n1c(SCC(=O)Nc2nnc(C)s2)nc2c(c1=O)SCC2	active: 11.7 µM
CC1(C)Cc2c(cnn2-c2ccc(F)cc2)C(NC(=O)CCN2CCCCO2)C1 (centres undefined)	inconclusive: 18.5 µM [inhibitor, single point]
COc1ccc(C(O)P(=O)(OCCC(C)C)c2ccc(N(C)C)cc2)cc1OC (centres undefined)	inconclusive: 2.94 µM [inhibitor, partial curve, poor fit]
O=C(O)CSC1CC(=O)N(c2ccc(Cl)c(Cl)c2)C1=O (centres undefined)	inconclusive: 18.5 µM [inhibitor, single point]
Cc1cccc(NC(=O)CSc2nnnn2-c2ccc3c(c2)OCCO3)n1	inconclusive: 0.329 µM [inhibitor, full curve, poor fit]
C/C(=N/NC(=O)c1ccc(C)s1)c1ccncc1	inconclusive: 11.7 µM [inhibitor, single point]
COc1ccccc1CNc1ncnc2sccc12	inactive
COc1ccc(NC(=O)c2c(-c3ccccc3)noc2C)c(OC)c1	inconclusive: 10.4 µM [inhibitor, single point]
Cc1ccc2nc(Br)c3c(c2c1)OC(CBr)C3 (centres undefined)	inconclusive: 2.62 µM [inhibitor, single point]
O=C(Nc1cc(C(F)(F)F)ccc1-n1cncn1)c1ccc([N+](=O)[O-])o1	inconclusive: 9.28 µM [inhibitor, partial curve, poor fit]
CC(=O)Nc1ccc(S(=O)(=O)N2CCN(c3nc4ccccc4n3CC(C)C)CC2)cc1	inactive
Cc1cc(C)c(C#N)c(N2CCN(c3ccccc3F)CC2)n1	active: 11.7 µM
O=C(O)CSc1nnc(-c2ccc(Cl)cc2Cl)n1Cc1ccccc1	inactive
CCOc1ccccc1CN1CCNC(=O)C1CC(=O)NCCCn1cccn1 (centres undefined)	active: 11.7 µM

Reformatted with bars between the fields: part of the list above
SMILES | Potency
CCOc1ccc(C(=O)Nc2ccccc2CC)cc1[N+](=O)[O-] | inconclusive: 18.5 µM [inhibitor, single point]
COc1ccccc1NS(=O)(=O)c1ccc(Cl)c(NC(=O)CN2C(=O)c3ccccc3C2=O)c1 | inconclusive: 0.586 µM [inhibitor, partial curve, poor fit]
